Measured values as given in article PMC9160049, “Cryo-EM structures of Gid12-bound GID E3 reveal steric blockade as a mechanism inhibiting substrate ubiquitylation” (Nature Communications, 2022).
No constants are given. Whether binding was seen depends on the method and setting. For some assays here: In cells and extracts the contact can be indirect. Some entries that bind do so weakly or less than the wild type. Sequences can lack the tags named with a protein.

How the values were obtained:
[1] = biological target: T1, 2×Strep-Gid1 (Twin-Strep tag fused at the N-terminus of Gid1) (S. cerevisiae) (UniProt P53076); assay: cryo-EM structure; Gid12-SRS (Gid12-Gid4-Gid5-Gid1-Gid8) co-expressed in Hi5 cells and purified as a complex; 3.3 Å; 25 mM MES pH 6.5, 150 mM NaCl, 1 mM DTT; both purified
T1 sequence: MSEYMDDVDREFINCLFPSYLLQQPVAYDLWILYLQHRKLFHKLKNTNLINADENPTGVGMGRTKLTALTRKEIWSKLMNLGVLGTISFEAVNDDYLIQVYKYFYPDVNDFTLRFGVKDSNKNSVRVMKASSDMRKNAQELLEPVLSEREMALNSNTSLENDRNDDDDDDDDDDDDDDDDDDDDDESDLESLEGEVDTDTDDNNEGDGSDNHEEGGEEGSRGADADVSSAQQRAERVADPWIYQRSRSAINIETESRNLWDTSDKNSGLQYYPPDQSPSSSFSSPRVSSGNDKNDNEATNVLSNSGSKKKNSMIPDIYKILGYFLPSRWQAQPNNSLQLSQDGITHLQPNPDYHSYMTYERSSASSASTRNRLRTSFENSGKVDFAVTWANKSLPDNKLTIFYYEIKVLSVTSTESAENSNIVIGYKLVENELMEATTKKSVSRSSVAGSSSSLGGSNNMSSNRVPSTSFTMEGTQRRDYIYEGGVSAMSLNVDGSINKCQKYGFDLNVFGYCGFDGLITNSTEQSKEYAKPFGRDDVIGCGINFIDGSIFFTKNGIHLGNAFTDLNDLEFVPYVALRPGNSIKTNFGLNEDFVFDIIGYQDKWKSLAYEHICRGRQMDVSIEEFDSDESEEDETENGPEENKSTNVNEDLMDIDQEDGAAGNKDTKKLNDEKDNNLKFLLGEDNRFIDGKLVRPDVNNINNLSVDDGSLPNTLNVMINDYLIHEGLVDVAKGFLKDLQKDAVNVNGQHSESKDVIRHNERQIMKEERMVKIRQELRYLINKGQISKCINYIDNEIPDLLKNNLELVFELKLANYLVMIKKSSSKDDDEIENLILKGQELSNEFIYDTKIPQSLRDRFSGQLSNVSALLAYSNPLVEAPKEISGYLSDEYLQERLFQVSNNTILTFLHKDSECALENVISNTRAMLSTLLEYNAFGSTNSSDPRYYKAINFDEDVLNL

[2] = biological target: T2, Gid5 (recombinant, untagged, co-expressed) (S. cerevisiae) (UniProt P40547); assay: as above
T2 sequence: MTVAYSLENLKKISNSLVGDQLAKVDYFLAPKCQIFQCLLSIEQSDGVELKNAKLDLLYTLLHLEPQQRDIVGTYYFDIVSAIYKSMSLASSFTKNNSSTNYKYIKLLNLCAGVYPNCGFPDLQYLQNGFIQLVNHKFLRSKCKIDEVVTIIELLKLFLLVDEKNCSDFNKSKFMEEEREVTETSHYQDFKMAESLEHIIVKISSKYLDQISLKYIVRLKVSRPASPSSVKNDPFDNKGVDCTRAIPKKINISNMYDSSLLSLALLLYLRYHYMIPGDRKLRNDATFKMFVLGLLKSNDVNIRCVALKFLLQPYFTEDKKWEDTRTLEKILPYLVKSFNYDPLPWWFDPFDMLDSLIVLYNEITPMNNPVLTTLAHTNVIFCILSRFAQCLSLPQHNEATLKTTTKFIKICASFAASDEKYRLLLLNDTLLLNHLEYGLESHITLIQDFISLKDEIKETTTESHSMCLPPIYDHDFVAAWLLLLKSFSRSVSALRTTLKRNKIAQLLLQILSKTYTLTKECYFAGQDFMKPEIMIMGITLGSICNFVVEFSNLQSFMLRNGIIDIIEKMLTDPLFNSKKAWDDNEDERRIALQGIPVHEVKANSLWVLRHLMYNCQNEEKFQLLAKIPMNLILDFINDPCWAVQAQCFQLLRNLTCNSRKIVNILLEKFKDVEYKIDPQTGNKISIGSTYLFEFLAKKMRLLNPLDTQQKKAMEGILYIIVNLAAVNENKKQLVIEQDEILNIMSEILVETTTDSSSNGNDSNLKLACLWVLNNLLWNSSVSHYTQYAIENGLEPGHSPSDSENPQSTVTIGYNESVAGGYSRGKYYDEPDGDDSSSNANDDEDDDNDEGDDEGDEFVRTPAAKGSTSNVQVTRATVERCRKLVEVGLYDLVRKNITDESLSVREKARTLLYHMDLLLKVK

[3] = biological target: T3, Strep-Gid5 (N-terminal Twin-Strep-tagged Gid5) (S. cerevisiae) (UniProt P40547); assay: pull-down; Hi5 insect cells co-infected with baculoviruses for all GID subunits, Gid12 and Moh1 or all but one; pulldown of GST-Gid1, Twin-Strep-Gid5 or Twin-Strep-Gid1 from lysate; 50 mM Tris-HCl pH 8.0, 200 mM NaCl, 5 mM DTT; SDS-PAGE, Coomassie
T3 sequence: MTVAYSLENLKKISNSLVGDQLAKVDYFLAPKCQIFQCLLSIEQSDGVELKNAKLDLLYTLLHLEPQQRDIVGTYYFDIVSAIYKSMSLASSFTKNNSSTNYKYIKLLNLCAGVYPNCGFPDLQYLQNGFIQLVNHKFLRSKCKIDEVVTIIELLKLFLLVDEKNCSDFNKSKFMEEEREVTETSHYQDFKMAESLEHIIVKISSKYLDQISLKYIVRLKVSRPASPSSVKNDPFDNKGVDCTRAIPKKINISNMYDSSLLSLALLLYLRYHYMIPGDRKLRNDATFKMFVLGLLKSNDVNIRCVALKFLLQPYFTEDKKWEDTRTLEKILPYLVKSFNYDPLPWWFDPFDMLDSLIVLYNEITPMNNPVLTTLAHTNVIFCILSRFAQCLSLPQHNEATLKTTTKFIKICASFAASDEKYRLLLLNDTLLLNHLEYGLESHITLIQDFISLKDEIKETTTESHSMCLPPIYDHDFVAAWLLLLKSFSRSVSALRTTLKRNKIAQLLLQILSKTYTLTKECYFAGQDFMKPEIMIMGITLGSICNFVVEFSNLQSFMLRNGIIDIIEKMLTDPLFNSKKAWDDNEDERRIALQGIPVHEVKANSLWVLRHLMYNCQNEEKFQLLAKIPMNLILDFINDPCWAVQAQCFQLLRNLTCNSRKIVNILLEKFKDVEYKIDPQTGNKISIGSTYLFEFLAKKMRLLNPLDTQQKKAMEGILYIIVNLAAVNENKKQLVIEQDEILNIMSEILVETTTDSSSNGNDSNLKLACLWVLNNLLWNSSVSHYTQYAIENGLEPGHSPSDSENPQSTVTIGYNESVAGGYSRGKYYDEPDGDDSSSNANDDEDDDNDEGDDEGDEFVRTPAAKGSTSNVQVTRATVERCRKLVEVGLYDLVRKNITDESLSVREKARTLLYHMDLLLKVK

[4] = biological target: T1, 2×Strep-Gid1 (Twin-Strep tag fused at the N-terminus of Gid1) (S. cerevisiae); assay: pull-down; Hi5 insect cells co-expressing combinations of 2×Strep-Gid1, Gid8, Gid5, Gid4 and Gid10 (with Gid12); Strep-Tactin pulldown on Gid1, 4 °C; 50 mM Tris/HCl pH 7.5, 200 mM NaCl, 5 mM DTT; SDS-PAGE
[5] = biological target: T4, Gid1 (recombinant, untagged, in Chelator/Cage GID^SR4) (S. cerevisiae) (UniProt P53076); assay: cryo-EM structure; Cage-GID^SR4 prepared without Gid12, co-expressed in Hi5 cells and purified; 19.8 Å map fitted with three Chelator-GID^SR4 models; both purified
T4 sequence: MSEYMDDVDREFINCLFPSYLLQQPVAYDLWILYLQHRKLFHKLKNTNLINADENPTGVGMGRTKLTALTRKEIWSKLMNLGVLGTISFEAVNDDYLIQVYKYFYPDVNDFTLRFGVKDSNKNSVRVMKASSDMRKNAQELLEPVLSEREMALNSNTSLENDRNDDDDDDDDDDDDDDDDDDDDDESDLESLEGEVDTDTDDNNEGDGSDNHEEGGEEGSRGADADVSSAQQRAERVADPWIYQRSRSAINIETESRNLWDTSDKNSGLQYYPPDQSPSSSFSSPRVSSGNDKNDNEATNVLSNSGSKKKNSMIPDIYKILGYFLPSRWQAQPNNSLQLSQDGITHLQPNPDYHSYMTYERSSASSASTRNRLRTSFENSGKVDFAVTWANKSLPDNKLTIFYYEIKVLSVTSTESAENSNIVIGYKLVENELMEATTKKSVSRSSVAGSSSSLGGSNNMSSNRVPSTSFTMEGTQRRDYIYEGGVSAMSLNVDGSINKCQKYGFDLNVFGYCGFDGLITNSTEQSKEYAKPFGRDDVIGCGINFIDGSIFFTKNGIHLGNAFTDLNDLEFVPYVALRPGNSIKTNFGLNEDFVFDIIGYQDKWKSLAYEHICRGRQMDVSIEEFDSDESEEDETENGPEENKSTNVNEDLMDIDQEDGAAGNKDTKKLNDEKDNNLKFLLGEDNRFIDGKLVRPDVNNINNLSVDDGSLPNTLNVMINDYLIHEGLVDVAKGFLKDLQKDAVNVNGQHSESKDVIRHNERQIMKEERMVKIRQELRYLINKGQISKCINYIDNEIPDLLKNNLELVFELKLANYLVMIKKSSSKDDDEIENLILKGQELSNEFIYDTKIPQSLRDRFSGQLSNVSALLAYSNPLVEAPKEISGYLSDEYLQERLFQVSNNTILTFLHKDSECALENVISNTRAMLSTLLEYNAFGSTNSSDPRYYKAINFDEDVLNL

B1: Gid4 (recombinant, untagged, co-expressed) (protein, UniProt P38263 1-362)
chain: MINNPKVDSVAEKPKAVTSKQSEQAASPEPTPAPPVSRNQYPITFNLTSTAPFHLHDRHRYLQEQDLYKCASRDSLSSLQQLAHTPNGSTRKKYIVEDQSPYSSENPVIVTSSYNHTVCTNYLRPRMQFTGYQISGYKRYQVTVNLKTVDLPKKDCTSLSPHLSGFLSIRGLTNQHPEISTYFEAYAVNHKELGFLSSSWKDEPVLNEFKATDQTDLEHWINFPSFRQLFLMSQKNGLNSTDDNGTTNAAKKLPPQQLPTTPSADAGNISRIFSQEKQFDNYLNERFIFMKWKEKFLVPDALLMEGVDGASYDGFYYIVHDQVTGNIQGFYYHQDAEKFQQLELVPSLKNKVESSDCSFEFA
binding [1]: binds | binding [2]: binds | binding [3]: binds

B2: Gid10 (protein, UniProt P53242 1-292)
chain: MTSLNIMGRKFILERAKRNDNIEEIYTSAYVSLPSSTDTRLPHFKAKEEDCDVYEEGTNLVGKNAKYTYRSLGRHLDFLRPGLRFGGSQSSKYTYYTVEVKIDTVNLPLYKDSRSLDPHVTGTFTIKNLTPVLDKVVTLFEGYVINYNQFPLCSLHWPAEETLDPYMAQRESDCSHWKRFGHFGSDNWSLTERNFGQYNHESAEFMNQRYIYLKWKERFLLDDEEQENLMLDDNHHLEGASFEGFYYVCLDQLTGSVEGYYYHPACELFQKLELVPTNCDALNTYSSGFEIA
binding [4]: binds

B3: Gid7 (recombinant, untagged, in Chelator/Cage GID^SR4) (protein, UniProt P25569 1-745)
chain: MSHTNKIAYVLNNDTEETASPSSVGCFDKKQLTKLLIHTLKELGYDSAANQLLLESGGYQNESNHIQTFFKLIKTGQFHLINWQIVCSLPLAHSSPLRSEWLQRLLIPTPTPATTSLFDHMLLQLQYLQQLMSSVNSSTCSDAEIATLRNYVEIMILVNRQIFLEFFHPVTNSASHKGPHTALPVLYLRKILKNFIEIWDSLLVSNDQFLNEENIFNPETTLRELSTYLTNPKLTAQLNLERDHLIDAISKYIDPNELVPKGRLLHLLKQAIKYQQSQDIFNIIDPDDDASFSSPPHRINLLQDNFSHDLTVTFQEWKTIQDTTDEIWFLTFSPNGKYLASATSESSRGYFITVYDVEQDFKIYKTCVSLSQSVLYLMFSPDSRYLVACPFSEDVTIYDMNATSLPDASATDSFLLYPSTRLSPMDSFKLDTTTYPDDTESSASSSSRPANANSNQSRVWCCDAFHTAERAGWMVVGSPDREAIVHSLTTKESLFSLKGRTCIALGHDENISGRKSIDPAKVLYKPTSSNGNWQYVEDDETFPRVHDVKISYDDKYVLLMTHQGVIDVYDFSGFPSKEELSKQTVDPKNFLIPRIARLDVGKNMTCISLPLNTTHQGFHRQQISESQHLVLVSLQDNELQMWDYKENILIQKYFGQKQQHFIIRSCFAYGNKLVMSGSEDGKIYIWDRIRGNLVSVLSGHSTVMSNSTKPMGKNCNVVASNPADKEMFASGGDDGKIKIWKISRN
binding [5]: binds
